Consider 2 molecules from paper PMC5412259.

These are yes or no findings as the source states them, for the method shown. In cells and extracts the contact can be indirect. Some results given as binding are weak or reduced against the parent protein; the word gives no strength.

The target of test [1] is T1, toll-like receptor 4 (TLR4) (rat (endogenous in NR8383)) (UniProt Q9QX05).
T1 sequence: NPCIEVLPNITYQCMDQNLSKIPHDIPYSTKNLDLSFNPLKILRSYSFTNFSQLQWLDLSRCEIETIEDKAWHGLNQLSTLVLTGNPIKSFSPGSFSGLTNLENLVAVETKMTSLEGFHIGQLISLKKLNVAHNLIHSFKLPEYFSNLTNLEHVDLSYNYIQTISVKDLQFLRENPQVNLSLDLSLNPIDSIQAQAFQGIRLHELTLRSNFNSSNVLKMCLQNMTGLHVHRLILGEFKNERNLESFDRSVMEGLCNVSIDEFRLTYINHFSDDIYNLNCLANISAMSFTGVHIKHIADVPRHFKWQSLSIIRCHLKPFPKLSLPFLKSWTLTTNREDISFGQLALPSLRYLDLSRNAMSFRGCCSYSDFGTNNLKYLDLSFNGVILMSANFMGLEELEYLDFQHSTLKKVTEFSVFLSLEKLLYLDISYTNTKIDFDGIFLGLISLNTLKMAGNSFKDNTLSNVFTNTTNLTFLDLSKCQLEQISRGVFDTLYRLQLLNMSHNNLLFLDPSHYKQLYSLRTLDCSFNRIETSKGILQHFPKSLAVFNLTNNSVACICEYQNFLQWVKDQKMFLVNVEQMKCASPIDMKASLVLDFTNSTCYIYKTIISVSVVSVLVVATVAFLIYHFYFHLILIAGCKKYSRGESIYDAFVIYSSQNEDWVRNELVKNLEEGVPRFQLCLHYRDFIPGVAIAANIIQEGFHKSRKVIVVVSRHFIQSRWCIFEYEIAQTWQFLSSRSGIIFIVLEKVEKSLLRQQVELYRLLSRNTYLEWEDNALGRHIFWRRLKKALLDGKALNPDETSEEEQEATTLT
Put plainly: co-IP; NR8383 cells stimulated by LPS or HMGB1, with or without increasing concentrations of glycyrrhizin (GL) for 12 h; lysed in 1x RIPA buffer; lysates incubated overnight at 4°C with 5 μg/ml anti-RAGE or anti-TLR4 monoclonal antibody on protein A agarose beads; western blotting. Background: In western blotting, separated proteins are transferred to a membrane and probed.

Test [2] has as its target T2, receptor for advanced glycation end products (RAGE) (rat (endogenous in NR8383)), Q63495.
T2 chain: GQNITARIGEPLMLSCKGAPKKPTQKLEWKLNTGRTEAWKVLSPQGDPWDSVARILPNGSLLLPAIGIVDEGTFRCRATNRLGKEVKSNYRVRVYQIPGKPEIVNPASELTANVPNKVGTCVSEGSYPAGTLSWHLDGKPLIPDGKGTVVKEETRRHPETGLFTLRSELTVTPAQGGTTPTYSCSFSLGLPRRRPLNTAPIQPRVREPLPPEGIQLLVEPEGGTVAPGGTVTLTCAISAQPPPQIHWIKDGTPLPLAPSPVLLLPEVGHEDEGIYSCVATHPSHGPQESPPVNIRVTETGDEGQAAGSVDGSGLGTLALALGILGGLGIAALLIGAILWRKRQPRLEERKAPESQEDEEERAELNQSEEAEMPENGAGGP
The test is described as above. The following applies: remark: other sources report otherwise.

As to “high mobility group box-1 protein (HMGB1) (from UniProt P63159 1-215)”, in test [1], the binding entry is reported as “binds”.

B1: high mobility group box-1 protein (HMGB1), P63159 1-215 (protein)
chain: MGKGDPKKPRGKMSSYAFFVQTCREEHKKKHPDASVNFSEFSKKCSERWKTMSAKEKGKFEDMAKADKARYEREMKTYIPPKGETKKKFKDPNAPKRPPSAFFLFCSEYRPKIKGEHPGLSIGDVAKKLGEMWNNTAADDKQPYEKKAAKLKEKYEKDIAAYRAKGKPDAAKKGVVKAEKSKKKKEEEDDEEDEEDEEEEEEEEDEDEEEDDDDE
Regarding B1, the binding entry in test [2] was “binds”.
